Laboratory results: the supplement of paper PMC10849652
This is one part of the list. Residues, ends and D or L forms follow the SMILES beside them. *: point of attachment. Cbz = O=C(OCc1ccccc1)*

Amino acid sequences for entries named in this document (tags omitted). A change or cut given only in a name is not applied to a line headed by its entry.
UniProt Q9NQG7: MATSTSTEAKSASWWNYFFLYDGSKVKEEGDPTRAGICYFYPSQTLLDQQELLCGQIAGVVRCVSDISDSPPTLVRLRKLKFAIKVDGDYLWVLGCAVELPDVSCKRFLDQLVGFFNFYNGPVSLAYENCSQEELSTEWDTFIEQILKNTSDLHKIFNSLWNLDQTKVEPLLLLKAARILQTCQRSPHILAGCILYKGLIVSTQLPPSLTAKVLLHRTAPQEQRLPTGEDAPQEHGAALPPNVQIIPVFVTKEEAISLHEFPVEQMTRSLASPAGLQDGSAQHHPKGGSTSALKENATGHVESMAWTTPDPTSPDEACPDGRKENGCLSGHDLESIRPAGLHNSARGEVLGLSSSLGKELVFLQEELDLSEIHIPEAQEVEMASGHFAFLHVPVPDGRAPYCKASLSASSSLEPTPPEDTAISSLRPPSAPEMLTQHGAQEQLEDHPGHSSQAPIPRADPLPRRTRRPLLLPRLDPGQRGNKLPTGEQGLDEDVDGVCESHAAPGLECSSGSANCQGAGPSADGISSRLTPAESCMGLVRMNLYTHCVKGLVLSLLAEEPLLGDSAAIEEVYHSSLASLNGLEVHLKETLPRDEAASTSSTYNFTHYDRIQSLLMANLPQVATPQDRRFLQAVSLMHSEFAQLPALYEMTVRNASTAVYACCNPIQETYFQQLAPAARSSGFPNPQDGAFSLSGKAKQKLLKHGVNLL
UniProt P41134: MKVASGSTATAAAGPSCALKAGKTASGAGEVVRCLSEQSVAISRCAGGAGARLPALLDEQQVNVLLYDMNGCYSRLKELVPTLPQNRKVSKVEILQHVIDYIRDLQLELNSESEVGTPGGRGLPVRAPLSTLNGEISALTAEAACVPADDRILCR
UniProt Q8IWL3: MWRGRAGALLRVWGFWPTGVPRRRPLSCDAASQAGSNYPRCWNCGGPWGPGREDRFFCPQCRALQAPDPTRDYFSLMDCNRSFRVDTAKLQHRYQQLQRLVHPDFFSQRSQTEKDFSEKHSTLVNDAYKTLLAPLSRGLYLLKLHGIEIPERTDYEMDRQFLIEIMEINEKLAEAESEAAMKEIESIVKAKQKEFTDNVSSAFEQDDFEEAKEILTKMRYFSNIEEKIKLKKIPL
UniProt Q05084: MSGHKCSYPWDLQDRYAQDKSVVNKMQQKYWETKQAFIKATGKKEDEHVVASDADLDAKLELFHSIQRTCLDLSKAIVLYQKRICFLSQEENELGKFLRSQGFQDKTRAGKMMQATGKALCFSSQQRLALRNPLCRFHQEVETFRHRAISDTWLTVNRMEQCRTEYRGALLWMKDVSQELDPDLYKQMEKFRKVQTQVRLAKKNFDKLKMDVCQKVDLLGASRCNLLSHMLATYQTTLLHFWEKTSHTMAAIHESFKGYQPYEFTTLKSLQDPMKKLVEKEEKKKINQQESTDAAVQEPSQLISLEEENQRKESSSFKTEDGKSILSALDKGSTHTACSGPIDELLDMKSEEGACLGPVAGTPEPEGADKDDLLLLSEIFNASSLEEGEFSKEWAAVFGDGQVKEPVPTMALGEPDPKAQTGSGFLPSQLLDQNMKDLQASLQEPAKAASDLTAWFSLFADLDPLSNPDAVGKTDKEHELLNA
UniProt Q96FZ2: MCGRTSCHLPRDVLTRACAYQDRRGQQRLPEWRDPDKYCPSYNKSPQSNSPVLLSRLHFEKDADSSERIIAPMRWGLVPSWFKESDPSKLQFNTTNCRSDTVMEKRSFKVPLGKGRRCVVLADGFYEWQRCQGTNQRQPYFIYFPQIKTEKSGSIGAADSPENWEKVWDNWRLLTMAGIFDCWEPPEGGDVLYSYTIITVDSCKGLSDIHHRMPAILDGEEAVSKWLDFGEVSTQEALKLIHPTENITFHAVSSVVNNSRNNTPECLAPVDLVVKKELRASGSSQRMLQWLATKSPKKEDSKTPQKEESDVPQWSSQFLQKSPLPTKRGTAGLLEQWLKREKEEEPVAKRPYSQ
UniProt Q92902: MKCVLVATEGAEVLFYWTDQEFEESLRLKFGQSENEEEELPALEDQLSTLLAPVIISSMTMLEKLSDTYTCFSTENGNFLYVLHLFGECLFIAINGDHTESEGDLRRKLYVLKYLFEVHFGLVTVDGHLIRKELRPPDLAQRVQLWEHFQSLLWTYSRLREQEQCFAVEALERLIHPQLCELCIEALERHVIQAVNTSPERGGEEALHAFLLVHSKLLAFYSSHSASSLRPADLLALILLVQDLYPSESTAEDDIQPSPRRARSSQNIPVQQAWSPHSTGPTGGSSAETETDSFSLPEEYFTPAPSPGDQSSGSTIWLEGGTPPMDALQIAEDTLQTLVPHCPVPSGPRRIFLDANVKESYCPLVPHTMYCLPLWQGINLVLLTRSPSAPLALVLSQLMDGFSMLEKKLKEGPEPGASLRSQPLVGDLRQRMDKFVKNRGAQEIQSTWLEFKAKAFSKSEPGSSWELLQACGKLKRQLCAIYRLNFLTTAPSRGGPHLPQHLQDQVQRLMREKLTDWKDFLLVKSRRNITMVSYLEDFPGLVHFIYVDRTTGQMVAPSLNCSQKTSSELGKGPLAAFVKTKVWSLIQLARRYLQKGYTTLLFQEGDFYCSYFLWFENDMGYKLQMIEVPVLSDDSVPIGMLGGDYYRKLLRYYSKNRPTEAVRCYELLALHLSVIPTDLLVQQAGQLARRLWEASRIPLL
UniProt Q9NWY4: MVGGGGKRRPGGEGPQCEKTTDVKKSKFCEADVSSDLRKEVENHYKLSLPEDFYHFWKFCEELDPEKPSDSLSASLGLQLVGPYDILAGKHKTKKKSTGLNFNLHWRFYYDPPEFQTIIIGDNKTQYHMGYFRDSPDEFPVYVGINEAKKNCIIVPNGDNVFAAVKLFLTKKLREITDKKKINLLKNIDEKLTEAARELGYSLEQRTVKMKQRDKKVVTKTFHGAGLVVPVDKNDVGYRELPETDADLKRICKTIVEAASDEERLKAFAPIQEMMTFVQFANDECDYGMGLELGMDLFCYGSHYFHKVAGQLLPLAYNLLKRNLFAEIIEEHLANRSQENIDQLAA
UniProt Q659A1: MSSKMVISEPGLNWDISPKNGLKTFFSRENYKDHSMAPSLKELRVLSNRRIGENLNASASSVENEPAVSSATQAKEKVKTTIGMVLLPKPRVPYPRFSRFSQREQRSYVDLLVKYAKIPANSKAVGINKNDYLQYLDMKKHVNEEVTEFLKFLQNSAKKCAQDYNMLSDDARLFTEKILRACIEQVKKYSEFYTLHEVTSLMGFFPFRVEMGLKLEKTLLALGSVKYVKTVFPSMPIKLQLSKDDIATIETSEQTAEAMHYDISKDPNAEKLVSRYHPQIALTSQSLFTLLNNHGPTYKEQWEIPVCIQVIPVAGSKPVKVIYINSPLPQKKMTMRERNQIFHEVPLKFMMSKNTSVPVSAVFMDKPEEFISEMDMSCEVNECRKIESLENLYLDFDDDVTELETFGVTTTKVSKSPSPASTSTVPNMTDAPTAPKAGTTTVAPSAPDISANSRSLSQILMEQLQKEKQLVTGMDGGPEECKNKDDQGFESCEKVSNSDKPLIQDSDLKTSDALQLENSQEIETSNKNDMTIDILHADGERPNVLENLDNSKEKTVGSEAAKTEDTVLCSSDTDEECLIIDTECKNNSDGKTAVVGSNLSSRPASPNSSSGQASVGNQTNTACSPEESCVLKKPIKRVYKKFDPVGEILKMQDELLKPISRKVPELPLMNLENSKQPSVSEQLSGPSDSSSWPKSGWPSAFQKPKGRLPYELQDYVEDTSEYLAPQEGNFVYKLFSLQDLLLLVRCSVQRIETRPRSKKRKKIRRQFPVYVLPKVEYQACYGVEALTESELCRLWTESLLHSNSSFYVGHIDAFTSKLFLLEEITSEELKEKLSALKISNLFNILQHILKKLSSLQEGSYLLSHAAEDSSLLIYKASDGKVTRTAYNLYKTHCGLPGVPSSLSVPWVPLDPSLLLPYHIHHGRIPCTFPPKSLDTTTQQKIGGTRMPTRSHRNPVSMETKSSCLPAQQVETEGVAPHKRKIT
UniProt Q9NSB8: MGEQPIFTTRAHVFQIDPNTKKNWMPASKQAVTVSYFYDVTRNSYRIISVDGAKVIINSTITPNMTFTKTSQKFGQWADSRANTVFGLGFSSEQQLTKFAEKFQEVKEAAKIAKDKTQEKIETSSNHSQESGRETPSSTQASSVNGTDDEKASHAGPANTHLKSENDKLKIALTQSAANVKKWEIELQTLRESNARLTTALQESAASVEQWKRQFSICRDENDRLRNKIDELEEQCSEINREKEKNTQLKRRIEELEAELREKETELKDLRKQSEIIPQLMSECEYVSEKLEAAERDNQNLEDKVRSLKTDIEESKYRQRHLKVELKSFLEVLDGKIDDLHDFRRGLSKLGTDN
UniProt Q9BW72: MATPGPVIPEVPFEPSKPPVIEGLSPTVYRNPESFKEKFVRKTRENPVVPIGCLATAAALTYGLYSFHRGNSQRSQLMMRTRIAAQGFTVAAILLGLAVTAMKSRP
UniProt Q9UJC3, whole entry, looked up: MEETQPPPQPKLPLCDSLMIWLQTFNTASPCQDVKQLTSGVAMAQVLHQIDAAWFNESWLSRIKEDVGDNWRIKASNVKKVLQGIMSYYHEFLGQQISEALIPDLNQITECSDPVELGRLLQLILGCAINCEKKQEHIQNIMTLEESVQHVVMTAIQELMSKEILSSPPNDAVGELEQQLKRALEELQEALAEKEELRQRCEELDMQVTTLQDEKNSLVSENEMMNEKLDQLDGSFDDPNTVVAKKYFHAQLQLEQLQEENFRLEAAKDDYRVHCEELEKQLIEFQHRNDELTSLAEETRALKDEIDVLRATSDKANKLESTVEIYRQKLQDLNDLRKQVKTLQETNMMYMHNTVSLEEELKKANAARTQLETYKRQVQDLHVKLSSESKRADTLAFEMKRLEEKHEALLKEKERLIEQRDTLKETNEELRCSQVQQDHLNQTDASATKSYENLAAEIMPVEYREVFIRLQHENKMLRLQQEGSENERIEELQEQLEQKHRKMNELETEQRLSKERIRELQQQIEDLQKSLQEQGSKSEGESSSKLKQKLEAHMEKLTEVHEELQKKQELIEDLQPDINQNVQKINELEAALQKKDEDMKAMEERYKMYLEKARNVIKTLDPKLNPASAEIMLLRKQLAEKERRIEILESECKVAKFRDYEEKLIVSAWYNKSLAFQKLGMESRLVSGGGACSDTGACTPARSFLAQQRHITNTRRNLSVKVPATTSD
UniProt Q00613: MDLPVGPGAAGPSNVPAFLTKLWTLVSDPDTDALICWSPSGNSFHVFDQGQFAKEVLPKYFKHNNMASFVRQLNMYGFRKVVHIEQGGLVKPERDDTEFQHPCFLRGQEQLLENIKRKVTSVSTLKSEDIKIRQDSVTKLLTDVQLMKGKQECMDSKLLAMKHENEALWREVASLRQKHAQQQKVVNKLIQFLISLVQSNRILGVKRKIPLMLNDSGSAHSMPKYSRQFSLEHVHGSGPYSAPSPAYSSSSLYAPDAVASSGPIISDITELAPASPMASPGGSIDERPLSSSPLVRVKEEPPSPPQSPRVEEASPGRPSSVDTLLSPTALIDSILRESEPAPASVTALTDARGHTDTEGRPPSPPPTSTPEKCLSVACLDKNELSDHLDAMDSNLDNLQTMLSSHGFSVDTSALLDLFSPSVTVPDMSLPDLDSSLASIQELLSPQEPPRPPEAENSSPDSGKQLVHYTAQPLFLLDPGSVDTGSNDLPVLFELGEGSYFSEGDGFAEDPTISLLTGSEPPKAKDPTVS
UniProt P30939: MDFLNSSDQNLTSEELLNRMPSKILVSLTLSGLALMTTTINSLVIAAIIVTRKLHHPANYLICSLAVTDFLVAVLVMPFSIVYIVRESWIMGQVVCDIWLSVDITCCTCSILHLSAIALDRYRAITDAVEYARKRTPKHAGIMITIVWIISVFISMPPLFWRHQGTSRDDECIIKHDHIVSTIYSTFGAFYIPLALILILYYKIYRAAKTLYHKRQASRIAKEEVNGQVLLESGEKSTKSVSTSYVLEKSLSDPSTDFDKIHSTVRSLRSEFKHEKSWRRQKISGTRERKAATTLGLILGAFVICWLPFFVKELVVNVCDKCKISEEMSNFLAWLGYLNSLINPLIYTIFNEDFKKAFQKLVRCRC
UniProt Q9NSC5: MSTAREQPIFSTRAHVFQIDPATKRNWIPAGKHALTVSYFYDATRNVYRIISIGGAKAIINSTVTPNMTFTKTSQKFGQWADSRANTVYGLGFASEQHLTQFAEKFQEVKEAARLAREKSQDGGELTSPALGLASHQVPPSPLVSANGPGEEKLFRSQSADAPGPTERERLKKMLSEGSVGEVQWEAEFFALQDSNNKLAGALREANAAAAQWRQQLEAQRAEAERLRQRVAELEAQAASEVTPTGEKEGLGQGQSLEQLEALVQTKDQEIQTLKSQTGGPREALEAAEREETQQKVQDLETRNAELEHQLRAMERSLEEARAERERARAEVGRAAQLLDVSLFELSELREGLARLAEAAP
UniProt O75506: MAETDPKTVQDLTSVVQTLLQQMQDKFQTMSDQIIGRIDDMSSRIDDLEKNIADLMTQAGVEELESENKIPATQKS

compound: CC(C)(C)Cn1c(N)nc2ccc(-c3[nH]c(C(C)(C)C)nc3-c3ccc(F)cc3)nc21 [ralimetinib]; assay: log2 fold change, soluble protein after heating vs DMSO (PISA); higher = thermal stabilisation; K562 cells, 10 uM, 30 min; active = over 0.2 and 3.5 SD of the protein, either way, in both replicates (recomputed)
Procedure, shortened: (§1)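 Thermal stability values are relative to control samples and come from duplicates. They are expressed as log2 fold changes. For measurement, K562 cells (2×10^6 cells/mL) received 10 μM compound for 30 min, and aliquots were heated for 3 min over 48°C-58°C, pooled, and extracted at 4°C in PBS with 0.5% NP-40. Soluble protein, the supernatant after 21,000xg for 90 min, was quantified by TMTpro 16plex LC-MS/MS with equalised channel sums.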

Target | log2 fold change
HPS4 isoform 4 (UniProt Q9NQG7) | inactive: -0.176
HMGN5 (UniProt Q5JSK9) | inactive: -0.466
ID1 (UniProt P41134) | inactive: -0.009
HSCB (UniProt Q8IWL3) | inactive: 0.004
ICA1 isoform 2 (UniProt Q05084) | inactive: -0.391
HMCES (UniProt Q96FZ2) | inactive: -0.169
HPS1 (UniProt Q92902) | inactive: -0.034

compound: CC(C)(O)CC(=O)NCCn1ccc2ncnc(Nc3ccc(Oc4cccc(C(F)(F)F)c4)c(Cl)c3)c21; assay: as above
Procedure, shortened: as §1

Target | log2 fold change
HTD2 (UniProt P86397) | inactive: -0.362
HPF1 (UniProt Q9NWY4) | inactive: 0.13
ICE2 (UniProt Q659A1) | inactive: -0.028
HOOK2 (UniProt Q96ED9) | inactive: 0.031
HMGN5 (UniProt Q5JSK9) | inactive: 0.073
HOMER2 (UniProt Q9NSB8) | inactive: 0.18
HMGXB4 (UniProt Q9UGU5) | inactive: 0.18
HYOU1, A0A494C039 | inactive: 0.126
ID1 (UniProt P41134) | inactive: -0.235
HSCB (UniProt Q8IWL3) | inactive: -0.007
ICA1 isoform 2 (UniProt Q05084) | inactive: -0.073
HIGD2A (UniProt Q9BW72) | inactive: -0.061
HMCES (UniProt Q96FZ2) | inactive: 0.062
HOXB4 (UniProt P17483) | inactive: -0.008
HSPBP1 (UniProt Q9NZL4) | inactive: -0.028
HOOK1 (UniProt Q9UJC3) | inactive: 0.087
HSF1 (UniProt Q00613) | inactive: -0.185

compound: CC(C)C1=C2N=C(C=C(N2N=C1)NCC3=CC=CC=C3)NCCCCCCN; assay: as above
Procedure, shortened: as §1

Target | log2 fold change
HTD2 (UniProt P86397) | inactive: -0.04
ICE2 (UniProt Q659A1) | inactive: -0.169
HPS4 isoform 4 (UniProt Q9NQG7) | inactive: -0.025
HNMT (UniProt P50135) | inactive: 0.262
HNRNPD (UniProt D6RF44) | inactive: 0.16
ICOSLG isoform 2 (UniProt O75144) | inactive: 0.477
HMGN5 (UniProt Q5JSK9) | inactive: 0.015
HTR1F (UniProt P30939) | inactive: -0.028
HNRNPUL1 (UniProt M0R247) | inactive: 0.121
HYOU1, A0A494C039 | inactive: 0.051
ID1 (UniProt P41134) | inactive: -0.194
HSCB (UniProt Q8IWL3) | inactive: -0.06
ICA1 isoform 2 (UniProt Q05084) | inactive: -0.123
HUWE1 isoform 2 (UniProt Q7Z6Z7) | inactive: 0.049
HSPBAP1 (UniProt Q96EW2) | inactive: 0.011
HIGD2A (UniProt Q9BW72) | inactive: -0.051
HMCES (UniProt Q96FZ2) | inactive: -0.081
HOMER3 (UniProt Q9NSC5) | inactive: 0.054
HPS1 (UniProt Q92902) | inactive: -0.004
HOXD9 (UniProt P28356) | inactive: -0.125
HSF1 (UniProt Q00613) | inactive: -0.29

compound: CC(C)C[C@@H](C=O)NC(=O)[C@H](CC(C)C)NC(=O)[C@H](CC(C)C)NC(=O)OCc1ccccc1; assay: as above
Procedure, shortened: as §1

Target | log2 fold change
HPS4 isoform 4 (UniProt Q9NQG7) | inactive: 0.119
HMGN5 (UniProt Q5JSK9) | inactive: 0.258
ID1 (UniProt P41134) | inactive: -0.187
HSCB (UniProt Q8IWL3) | inactive: 0.045
ICA1 isoform 2 (UniProt Q05084) | inactive: -0.118
HMCES (UniProt Q96FZ2) | inactive: 0.018
HPS1 (UniProt Q92902) | inactive: 0.11

compound: CC(C)N(C[C@H]1O[C@@H](n2cnc3c(N)ncnc32)[C@H](O)[C@@H]1O)[C@H]1C[C@@H](CCc2nc3cc(C(C)(C)C)ccc3[nH]2)C1 [pinometostat]; assay: as above
Procedure, shortened: as §1

Target | log2 fold change
HPS4 isoform 4 (UniProt Q9NQG7) | inactive: 0.024
HMBS (UniProt F5H226) | inactive: 0.191
HOOK2 (UniProt Q96ED9) | inactive: -0.003
HTR1F (UniProt P30939) | inactive: -0.071
HNRNPUL1 (UniProt M0R247) | inactive: -0.025
HSCB (UniProt Q8IWL3) | inactive: 0.138
ICA1 isoform 2 (UniProt Q05084) | inactive: 0.108
HSPBAP1 (UniProt Q96EW2) | inactive: -0.128
HIGD2A (UniProt Q9BW72) | inactive: 0.187
HMG20B (UniProt Q9P0W2) | inactive: 0.243

compound: CC1=C(C(CC(=O)N1)C2=CC=C(C=C2)C(F)(F)F)C(=O)NC3=C(C=C4C(=C3)C=NN4)F; assay: as above
Procedure, shortened: as §1

Target | log2 fold change
HPS4 isoform 4 (UniProt Q9NQG7) | inactive: 0.004
HYOU1, A0A494C039 | inactive: -0.031
ID1 (UniProt P41134) | inactive: -0.179
HSCB (UniProt Q8IWL3) | inactive: -0.009
HSBP1 (UniProt O75506) | inactive: 0.016
HMCES (UniProt Q96FZ2) | inactive: 0.068
HMG20B (UniProt Q9P0W2) | inactive: 0.174
HOXB4 (UniProt P17483) | inactive: 0.082
HPS1 (UniProt Q92902) | inactive: -0.011
HSF1 (UniProt Q00613) | inactive: 0.05
